Values quoted from earlier work, collected in patent US9539278B2, “Preparation for use of aspartate and vitamin B12 or biotin for regulating ketone bodies” (N.V. Nutricia, priority 2004, dated 2017).
For at least one compound, name, drawing or mass did not settle the structure.

System: blood ketone body concentrations
Details: 48-hours starved rats

N[C@@H](CC(=O)O)C(=O)O [aspartate]
effect on blood ketone bodies (mimicking the alanine effect) (6 mmol (=0.69 g) of aspartate per kg body weight per hour): partially mimicked | effect on blood ketone body concentrations (half the dose of 6 mmol per kg body weight per hour): did not yield any significant effect
